This note sets out measurements from publication PMC11446459.

What all share (experiment): two-hybrid; Gal4 system (Matchmaker Gold); C1-FDX, ACP1, ACP2 in pGADT7, CI and CV subunits in pGBKT7; yeast AH109; growth on SD/-Trp/-Leu/-His/-Ade/+ x-α-gal for 4 days at 30°C
In assay [1] the target is T1, CAL1, CA module subunit of complex I, Gal4 DNA-binding domain fusion (Arabidopsis) (UniProt Q9FMV1).
T1 sequence: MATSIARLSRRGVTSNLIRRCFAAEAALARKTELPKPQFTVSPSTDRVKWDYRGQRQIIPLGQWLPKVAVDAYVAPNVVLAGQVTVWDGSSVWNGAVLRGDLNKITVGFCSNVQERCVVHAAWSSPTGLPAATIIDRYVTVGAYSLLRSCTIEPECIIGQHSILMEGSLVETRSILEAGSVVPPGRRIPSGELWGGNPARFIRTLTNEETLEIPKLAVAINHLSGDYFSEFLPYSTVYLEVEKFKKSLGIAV

Assay [2] deals with T2, subunit d of complex V, Gal4 DNA-binding domain fusion (Arabidopsis) (UniProt Q9FT52).
T2 sequence: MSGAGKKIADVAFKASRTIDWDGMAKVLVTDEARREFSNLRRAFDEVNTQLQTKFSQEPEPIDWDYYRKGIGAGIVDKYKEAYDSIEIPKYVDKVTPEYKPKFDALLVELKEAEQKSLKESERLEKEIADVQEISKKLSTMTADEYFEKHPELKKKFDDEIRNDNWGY

Assay [3] concerns the target T3, c subunit of the Fo module of complex V, Gal4 DNA-binding domain fusion (Arabidopsis) (UniProt P60112).
T3 sequence: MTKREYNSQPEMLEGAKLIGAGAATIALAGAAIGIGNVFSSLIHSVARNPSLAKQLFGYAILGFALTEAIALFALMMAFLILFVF

Assay [4] has as its target T4, CA1, CA module subunit of complex I, Gal4 DNA-binding domain fusion (Arabidopsis) (UniProt Q9FWR5).
T4 sequence: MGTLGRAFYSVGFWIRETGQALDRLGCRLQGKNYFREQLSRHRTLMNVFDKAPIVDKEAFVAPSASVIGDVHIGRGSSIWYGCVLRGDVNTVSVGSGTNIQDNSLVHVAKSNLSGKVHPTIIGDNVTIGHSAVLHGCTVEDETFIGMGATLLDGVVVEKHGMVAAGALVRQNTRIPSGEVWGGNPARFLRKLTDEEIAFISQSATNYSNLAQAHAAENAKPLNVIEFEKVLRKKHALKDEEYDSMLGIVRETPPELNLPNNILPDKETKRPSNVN

Assay [5] has as its target T5, δ subunit of the F1 module of complex V, Gal4 DNA-binding domain fusion (Arabidopsis) (UniProt Q96252).
T5 sequence: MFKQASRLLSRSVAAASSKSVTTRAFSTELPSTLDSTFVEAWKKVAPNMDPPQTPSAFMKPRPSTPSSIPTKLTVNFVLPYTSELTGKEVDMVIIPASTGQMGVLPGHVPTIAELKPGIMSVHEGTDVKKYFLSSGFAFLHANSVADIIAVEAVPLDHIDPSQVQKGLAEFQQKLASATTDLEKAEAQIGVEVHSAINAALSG

Assay [6] concerns the target T6, ACP1, Gal4 DNA-binding domain fusion (Arabidopsis) (UniProt P53665).
T6 sequence: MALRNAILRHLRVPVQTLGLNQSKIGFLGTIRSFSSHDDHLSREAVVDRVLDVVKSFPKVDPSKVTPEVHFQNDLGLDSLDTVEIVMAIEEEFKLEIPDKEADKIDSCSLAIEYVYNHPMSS

The target of assay [7] is T7, CA2, CA module subunit of complex I, Gal4 DNA-binding domain fusion (Arabidopsis) (UniProt Q9C6B3).
T7 sequence: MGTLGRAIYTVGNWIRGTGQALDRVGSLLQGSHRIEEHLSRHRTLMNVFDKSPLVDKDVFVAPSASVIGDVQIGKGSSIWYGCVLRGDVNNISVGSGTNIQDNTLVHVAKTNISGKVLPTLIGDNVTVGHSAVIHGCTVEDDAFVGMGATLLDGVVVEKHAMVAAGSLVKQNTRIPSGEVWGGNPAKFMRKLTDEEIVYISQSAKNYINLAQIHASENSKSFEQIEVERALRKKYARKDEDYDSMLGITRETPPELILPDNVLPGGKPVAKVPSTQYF

Assay [8] has as its target T8, A6, Q module subunit of complex I, Gal4 DNA-binding domain fusion (Arabidopsis) (UniProt Q9LHI0).
T8 sequence: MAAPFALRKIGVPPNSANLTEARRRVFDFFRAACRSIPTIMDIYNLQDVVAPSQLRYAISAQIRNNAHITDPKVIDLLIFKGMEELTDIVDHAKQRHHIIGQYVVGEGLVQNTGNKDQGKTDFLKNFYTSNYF

These are yes or no findings as the source states them, for the method shown. For some assays here: Binding can be weak; no strength is given. Sequences can lack the tags named with a protein.

As for “C1-FDX (Complex I-ferredoxin), Gal4 activation domain fusion (Arabidopsis)”, the binding entry in assay [1] is listed as “binds”; in assay [2], “no binding”; in assay [3], “no binding”; in assay [4] it was “binds”; in assay [5], “binds”; in assay [6], “binds weakly”. Also, the binding entry in assay [7] and in assay [8] was “binds” throughout.
